# Measured values from the supplement of paper PMC7830784.
# Structures can show the parent of a compound that is named as a salt. The list shows a part of the results. Most values lie within the scatter of the assay; repeated measurements hardly agree.
# Tested on: Brugia pahangi adult female
# Assay: motility inhibition on day 3 relative to DMSO vehicle; higher = more active
# Settings: 10 µM; 3 days
row,Compound,motility inhibition on day 3
1,CC(C)n1c(/C=C/C(O)CC(O)CC(=O)O)c(-c2ccc(F)cc2)c2ccccc21 (centres undefined) [fluvastatin],0.0456%
2,O=c1oc2cc(O)ccc2s1 [thioxolone],16.1%
3,CC1/C=C/C=C/C=C/C=C/C=C/C=C/C=C/C(OC2O[C@H](C)[C@@H](O)[C@H](N)[C@@H]2O)CC(O)C(C(=O)O)C(O)CC(=O)CC(O)CC(O)CC(O)CC(=O)CCCC(=O)CC(=O)OC1C(C)CC(C)C(O)CC(=O)c1ccc(N)cc1 (some centres undefined) [candicidin],8.15%
4,C[C@@H]1C[C@H]2[C@@H]3CCC4=CC(=O)C=C[C@]4(C)[C@@]3(Cl)[C@@H](O)C[C@]2(C)[C@@]1(OC(=O)c1ccco1)C(=O)CCl [mometasone furoate],< 0%
5,O=C(O)[C@H](CC(=O)N1C[C@H]2CCCC[C@H]2C1)Cc1ccccc1 [Mitiglinide calcium],25.9%
6,O=C(O)c1cc(/N=N/c2ccc(S(=O)(=O)Nc3ccccn3)cc2)ccc1O [sulfasalazine],< 0%
7,CN/C(=N\CCSCc1nc[nH]c1C)NC#N [Cimetidine],2.05%
8,C/C(=C\C(=O)OCCCCCCCCC(=O)O)C[C@@H]1OC[C@H](C[C@@H]2O[C@H]2[C@@H](C)[C@H](C)O)[C@@H](O)[C@H]1O [mupirocin],19.5%
9,C[C@@H](O[C@H]1OCCN(Cc2n[nH]c(=O)[nH]2)[C@H]1c1ccc(F)cc1)c1cc(C(F)(F)F)cc(C(F)(F)F)c1 [Aprepitant],5.35%
10,Oc1cccc(O)c1 [resorcinol],< 0%
11,CC(=O)N(c1onc(C)c1C)S(=O)(=O)c1ccc(N)cc1 [sulfisoxazole acetyl],7.89%
12,Cc1cc(O)cc(C)c1Cl [chloroxylenol],4.07%
13,Cc1cn(-c2cc(NC(=O)c3ccc(C)c(Nc4nccc(-c5cccnc5)n4)c3)cc(C(F)(F)F)c2)cn1 [nilotinib],6.86%
14,CC(N)CCCC(C)(C)O (centres undefined) [heptaminol hydrochloride],30.8%
15,CC(C)OC(=O)C(C)(C)Oc1ccc(C(=O)c2ccc(Cl)cc2)cc1 [fenofibrate],13.4%
16,Cc1cc2c(s1)Nc1ccccc1N=C2N1CCN(C)CC1 [olanzapine],7.54%
17,CCOC(=S)SSC(=S)OCC [dixanthogen],5.04%
18,CC=CC1=C(C(=O)O)N2C(=O)[C@@H](NC(=O)[C@H](N)c3ccc(O)cc3)[C@H]2SC1 [cefprozil],< 0%
19,NC(=O)CC[C@H](N)C(=O)O [L-Glutamine],18%
20,O=C1c2ccccc2C(=O)C1c1ccc(Br)cc1 [bromindione],10.5%
21,CCCCC[C@H](O)/C=C/[C@H]1[C@H](O)CC(=O)[C@@H]1C/C=C\CCCC(=O)O [Dinoprostone],25.7%
22,O=C(CCNNC(=O)c1ccncc1)NCc1ccccc1 [Nialamide],< 0%
23,Cc1nc2ccccn2c(=O)c1CCN1CCC(C(=O)c2ccc(F)cc2)CC1 [Pirenperone],30.1%
24,CC(C)(C)CC(C)(C)c1cc(Cc2cc(C(C)(C)CC(C)(C)C)cc(-n3nc4ccccc4n3)c2O)c(O)c(-n2nc3ccccc3n2)c1 [bisoctrizole],17.8%
25,NC(=O)c1cnccn1 [pyrazinamide],9.85%

# Nothing new here: an excerpt of the list.
row,Compound,motility inhibition on day 3
6,O=C(O)c1cc(/N=N/c2ccc(S(=O)(=O)Nc3ccccn3)cc2)ccc1O [sulfasalazine],< 0%
7,CN/C(=N\CCSCc1nc[nH]c1C)NC#N [Cimetidine],2.05%
8,C/C(=C\C(=O)OCCCCCCCCC(=O)O)C[C@@H]1OC[C@H](C[C@@H]2O[C@H]2[C@@H](C)[C@H](C)O)[C@@H](O)[C@H]1O [mupirocin],19.5%
9,C[C@@H](O[C@H]1OCCN(Cc2n[nH]c(=O)[nH]2)[C@H]1c1ccc(F)cc1)c1cc(C(F)(F)F)cc(C(F)(F)F)c1 [Aprepitant],5.35%
10,Oc1cccc(O)c1 [resorcinol],< 0%

# More entries

row,Compound,motility inhibition on day 3
1,CC(=O)O[C@H]1C(=O)[C@@]2(C)[C@H]([C@H](OC(=O)c3ccccc3)[C@]3(O)C[C@H](OC(=O)[C@H](O)[C@@H](NC(=O)c4ccccc4)c4ccccc4)C(C)=C1C3(C)C)[C@]1(OC(C)=O)CO[C@@H]1C[C@@H]2O [Taxol],3.56%
2,COc1cccc2c1C(=O)c1c(O)c3c(c(O)c1C2=O)C[C@@](O)(C(=O)CO)C[C@@H]3O[C@H]1C[C@H](N)[C@@H](O)[C@H](C)O1 [epirubicin hydrochloride],23.7%
3,C/C=C/c1ccc(OC)cc1 [anethole],34%
4,O[C@H]1[C@H](O)[C@@H](O)[C@H](O)[C@@H](O)[C@H]1O [inositol],35.3%
5,CCCN(CCC)CCc1cccc2c1CC(=O)N2 [ropinirole hydrochloride],16.5%
6,Nc1cc(N2CCCCC2)nc(N)[n+]1[O-] [Minoxidil],12.5%
7,C[C@]12CCC(=O)C=C1[C@@H]1C[C@@H]1[C@H]1[C@@H]3[C@@H]4C[C@@H]4[C@@]4(CCC(=O)O4)[C@@]3(C)CC[C@@H]12 [drospirenone],2.3%
8,CC1=C(/C=C/C(C)=C/C=C/C(C)=C/CO)C(C)(C)CCC1 [retinol],15.3%
9,C/C=C(/C(=C/C)c1ccc(O)cc1)c1ccc(O)cc1 [dienestrol],8.74%
10,Cc1ncc([N+](=O)[O-])n1CC(C)O (centres undefined) [secnidazole],4.33%
11,O=C(O)c1ccccc1OP(=O)(O)O [fosfosal],18.5%
12,CCC(NC(C)C)C(O)c1ccc(O)c2[nH]c(=O)ccc12 (centres undefined) [Procaterol HCl hemihydrate],9.29%
13,O=C(O)c1cc(=O)[nH]c(=O)[nH]1 [orotic acid],9%
14,O=c1n(CCCN2CCN(c3cccc(Cl)c3)CC2)nc2ccccn12 [Trazodone hydrochloride],5.52%
15,CC(=O)NCCCCCC(=O)O [acexamic acid],< 0%
16,CC1(C)S[C@@H]2[C@H](NC(=O)[C@H](N)c3ccccc3)C(=O)N2[C@H]1C(=O)O [ampicillin sodium],20.9%
17,C=C[C@H]1CN2CC[C@H]1C[C@H]2[C@H](O)c1ccnc2ccc(OC)cc12 [quinine sulfate],22.5%
18,c1ccc2c(CC3=NCCN3)cccc2c1 [naphazoline hydrochloride],14.1%
19,CC(=O)OCC(=O)[C@@]12OC(C)(C)O[C@@H]1C[C@H]1[C@@H]3C[C@H](F)C4=CC(=O)C=C[C@]4(C)[C@@]3(F)[C@@H](O)C[C@@]12C [fluocinonide],8.83%
20,CCN(CC)CC(=O)Nc1c(C)cccc1C [Lidocaine hydrochloride],28.9%
21,CC(=O)CC(c1ccccc1)c1c(O)c2ccccc2oc1=O (centres undefined) [warfarin],3.32%
22,O=C1NS(=O)(=O)c2ccccc21 [saccharin],57.1%
23,CO[C@@H]1[C@@H](O[C@@H]2O[C@H](C)[C@@H](O[C@H]3C[C@@](C)(O)[C@@H](OC(=O)CC(C)C)[C@H](C)O3)[C@H](N(C)C)[C@H]2O)[C@@H](CC=O)C[C@@H](C)[C@@H](O)/C=C/C=C/C[C@@H](C)OC(=O)C[C@H]1OC(C)=O [Josamycin],< 0%
24,O=c1oc2c(O)c(O)cc3c(=O)oc4c(O)c(O)cc1c4c23 [ellagic acid],2.42%
25,COc1cccc2c1C(=O)c1c(O)c3c(c(O)c1C2=O)C[C@@](O)(C(C)=O)C[C@@H]3O[C@H]1C[C@H](N)[C@H](O)[C@H](C)O1 [daunorubicin],19.3%

row,Compound,motility inhibition on day 3
1,CC(=O)NS(=O)(=O)c1ccc(N)cc1 [sulfacetamide],< 0%
2,Cc1cn([C@H]2C=C[C@@H](CO)O2)c(=O)[nH]c1=O [stavudine],< 0%
3,OCc1ccccc1O[C@@H]1O[C@H](CO)[C@@H](O)[C@H](O)[C@H]1O [salicin],< 0%
4,C=CC1=C(C(=O)O)N2C(=O)[C@@H](NC(=O)/C(=N\O)c3csc(N)n3)[C@H]2SC1 [cefdinir],27.8%
5,CN1C(CCl)Nc2cc(Cl)c(S(N)(=O)=O)cc2S1(=O)=O (centres undefined) [methyclothiazide],6.75%
6,NC(=O)CCCCC1CCSS1 (centres undefined) [lipoamide],< 0%
7,C=C(C)[C@H]1CC=C(C)CC1 [d-limonene],30%
8,NS(=O)(=O)c1cc2c(cc1C(F)(F)F)NCNS2(=O)=O [hydroflumethiazide],62.5%
9,CC(O)Cn1cnc2c1c(=O)n(C)c(=O)n2C (centres undefined) [proxyphylline],< 0%
10,CCC1(C)OC(=O)N(C)C1=O (centres undefined) [paramethadione],7.17%
11,N[C@@H](Cc1c[nH]c2ccccc12)C(=O)O [tryptophan],< 0%
12,O=C(OOC(=O)c1ccccc1)c1ccccc1 [benzoyl peroxide],30.8%
13,Cc1c(NC(=O)c2cccnc2)c(=O)n(-c2ccccc2)n1C [nifenazone],49.6%
14,CS(=O)(=O)OCCCCOS(C)(=O)=O [busulfan],23.7%
15,CC[C@@H]1C(=O)OC[C@@H]1Cc1cncn1C [(+)-Pilocarpine hydrochloride],< 0%
16,CN1C(=O)CC[C@H]1c1cccnc1 [cotinine],< 0%
17,CC(=O)N[C@H]1[C@H]([C@H](O)[C@H](O)CO)OC(O)(C(=O)O)C[C@@H]1O (mixture of isomers) [n-acetylneuramic acid],12.1%
18,O=C(CCCN1CCN(c2ccccn2)CC1)c1ccc(F)cc1 [azaperone],5.34%
19,C[C@H](CCC(=O)O)[C@H]1CC[C@H]2[C@@H]3[C@@H](O)C[C@@H]4C[C@H](O)CC[C@]4(C)[C@H]3CC[C@]12C [ursodiol],17.6%
20,C[C@@H](O)[C@@H]1NC(=O)[C@H](CCCCN)NC(=O)[C@@H](Cc2c[nH]c3ccccc23)NC(=O)[C@H](Cc2ccccc2)NC(=O)[C@@H](NC(=O)[C@H](N)Cc2ccccc2)CSSC[C@@H](C(=O)N[C@H](CO)[C@@H](C)O)NC1=O [Octreotide],2.15%
21,CC1CC(OC(=O)c2ccccc2O)CC(C)(C)C1 (centres undefined) [homosalate],1.62%
22,Nc1c2ccccc2nc2ccccc12 [aminacrine],0.654%
23,CN1CCC(=C2c3ccccc3Sc3ccccc32)CC1 [pimethixene maleate],5.83%
24,C[C@@H]1C[C@H]2[C@@H]3CCC4=CC(=O)C=C[C@]4(C)[C@@]3(F)[C@@H](O)C[C@]2(C)[C@@]1(O)C(=O)COP(=O)(O)O [dexamethasone sodium phosphate],31.1%
